Out of some 300,000 compounds screened, about 5,400 (1.8%) were called active. Inconclusive results, whose numbers are uncertain, are shown with a selection of clear calls. Calls follow the shape of the full dose curve; tested in HEK293 cells. Potencies beside an inconclusive call are fits to weak or partial responses and may not hold up.
Test: qHTS for inhibitors of binding or entry into cells for Marburg Virus
Conditions: Marburg virus pseudotyped entry inhibition, cell reporter; series mostly up to 37.8 µM
Potency is read from the fitted curve at half-maximal effect.

**Q.** Which Potency does the source give for `O=C(COc1ccc(Cl)cc1Cl)NC1CCSC1=O` (centres undefined) here?
**A.** inactive

**Q.** Which Potency does the source give for `COc1ccc(C)cc1NC(=O)CN(c1cc(C(F)(F)F)ccc1Cl)S(C)(=O)=O` here?
**A.** inconclusive: 17.8 µM [inhibitor, partial curve, poor fit]

**Q.** Which Potency does the source give for `CCCCn1cc(C(=O)c2cc(Br)ccc2O)cc(C#N)c1=O` here?
**A.** inconclusive: 15.8 µM [inhibitor, single point]

**Q.** With `CN(NC(=S)Nc1ccc(OC(F)F)cc1)C(=S)Nc1ccc(OC(F)F)cc1` as the compound, how does the Potency read?
**A.** inactive

**Q.** Which Potency does the source give for `COc1ccc(Nc2ncc(C(=O)N3CCN(Cc4ccccc4)CC3)c3ccccc23)cc1` here?
**A.** inconclusive: 29.1 µM [inhibitor, single point]

**Q.** Which Potency does the source give for `CCC(=NCc1cc(OC)cc(OC)c1)c1c(O)n(C)c(=O)n(C)c1=O` here?
**A.** active: 20.6 µM

**Q.** Which Potency does the source give for `CCN(CC)c1ccc(NC(=O)c2ccccc2Br)cc1S(=O)(=O)Nc1ccccc1OC` here?
**A.** inconclusive: 6.51 µM [inhibitor, single point]

**Q.** For `CC(=O)Nc1ccc(C(=O)N/N=C/c2ccccc2OCc2ccccc2)cc1`, which Potency is on record?
**A.** inconclusive: 35.5 µM [inhibitor, single point]

**Q.** Which Potency does the source give for `Nn1c(SCC(=O)N2CCOCC2)nnc1C1CC1` here?
**A.** inconclusive: 5.62 µM [inhibitor, single point]

**Q.** With `O=C(O)c1ccccc1C(=O)NC1Cc2ccccc2C1` as the compound, how does the Potency read?
**A.** inconclusive: 35.5 µM [activator, partial curve, poor fit]

**Q.** Which Potency does the source give for `CCC(=O)c1ccc(OC(=O)N(C)c2ccccc2)cc1` here?
**A.** inactive

**Q.** For `CC(=O)Nc1ccc(S(=O)(=O)Nc2ccc3c(c2)OCCO3)cc1Cl`, which Potency is on record?
**A.** inactive

**Q.** Which Potency does the source give for `COc1ccc(OCC(=O)N/N=C2\CCCCc3ccccc32)cc1` here?
**A.** inconclusive: 0.562 µM [activator, full curve, poor fit]

**Q.** With `CCN(CC(=O)Nc1ccccc1OC)C(=O)CSCc1ccc(C)cc1` as the compound, how does the Potency read?
**A.** inconclusive: 6.31 µM [activator, single point]

**Q.** With `Cc1ccc(-c2nnn(CC(=O)N(Cc3ccccc3F)C(C(=O)NC3CCCC3)c3ccncc3)n2)o1` (centres undefined) as the compound, how does the Potency read?
**A.** inactive

**Q.** For `N#C/C(=C\N1CCOCC1)C(N)=O`, which Potency is on record?
**A.** inconclusive: 6.31 µM [inhibitor, single point]

**Q.** For `CC(C)c1cc(C(=O)Nc2cc(Cl)ccc2O)no1`, which Potency is on record?
**A.** inconclusive: 1.46 µM [activator, partial curve]

**Q.** For `COc1ccccc1C(=O)Nc1ccc2c(c1)CN(Cc1cnc(C)s1)CC2`, which Potency is on record?
**A.** inconclusive: 35.5 µM [inhibitor, single point]

**Q.** With `COC(=O)c1cc(NC(=O)Cn2nc(C)n3cccc3c2=O)cc(C(=O)OC)c1` as the compound, how does the Potency read?
**A.** inconclusive: 35.5 µM [activator, single point]

**Q.** For `Cc1ccc(CCNC(=O)C2CCCN(C(=O)c3cc4sccc4n3C)C2)cc1` (centres undefined), which Potency is on record?
**A.** inconclusive: 16.4 µM [inhibitor, partial curve, poor fit]

**Q.** Which Potency does the source give for `CCOC(=O)/C(C#N)=C/C=C1/C=CC=CN1C` here?
**A.** inconclusive: 35.5 µM [activator, single point]

**Q.** With `COc1cccc(C(=O)CN2CCC(NC(=O)NC3CCCCC3)CC2)c1` as the compound, how does the Potency read?
**A.** inactive

**Q.** With `CC(C)OCCCNC(=O)c1ccc2c(=O)n(CCc3ccccc3)c(=O)[nH]c2c1` as the compound, how does the Potency read?
**A.** inconclusive: 12.6 µM [activator, single point]

**Q.** Which Potency does the source give for `COc1ccc(CNS(=O)(=O)CCNC(=O)c2ccccc2)cc1` here?
**A.** inconclusive: 6.31 µM [activator, single point]

**Q.** With `Cc1oc(-c2cccc(Cl)c2)nc1CN1CCCC(C(=O)NCc2ccc(F)cc2)C1` (centres undefined) as the compound, how does the Potency read?
**A.** inactive

**Q.** With `CCCCN(C)C(=O)C(Cc1ccccc1)NS(=O)(=O)c1ccc2c(c1)c(=O)n(C)c(=O)n2C` (centres undefined) as the compound, how does the Potency read?
**A.** inconclusive: 1 µM [inhibitor, partial curve, poor fit]

**Q.** With `O=C(NCCCCc1ccccc1)c1cccc(NC(=O)C2CCCCC2)c1` as the compound, how does the Potency read?
**A.** inconclusive: 0.0141 µM [activator, full curve, poor fit]

**Q.** With `O=C(c1cc(COc2ccc(F)cc2F)on1)N1CCN(C(=O)c2ccco2)CC1` as the compound, how does the Potency read?
**A.** inconclusive: 4.47 µM [inhibitor, partial curve, poor fit]

**Q.** With `Cc1coc2c1c(C)cc1oc(=O)cc(C)c12` as the compound, how does the Potency read?
**A.** inactive

**Q.** Which Potency does the source give for `O=C(NCc1ccccc1)c1ccc(Cl)cc1[N+](=O)[O-]` here?
**A.** inactive

**Q.** For `CCN(CC)S(=O)(=O)c1ccc(C(=O)Oc2coc(CSc3nc(C)cc(C)n3)cc2=O)cc1`, which Potency is on record?
**A.** inconclusive: 20 µM [activator, single point]

**Q.** With `Cc1cccn2c(=O)c3cc(C(=O)N4COCC4(C)C)n(C)c3nc12` as the compound, how does the Potency read?
**A.** inconclusive: 31.6 µM [activator, single point]

**Q.** For `COc1ccc(C2=NS(=O)(=O)N(C)C(C(=O)Nc3cc(OC)c(OC)c(OC)c3)=C2)cc1`, which Potency is on record?
**A.** inconclusive: 7.94 µM [inhibitor, partial curve, poor fit]

**Q.** Which Potency does the source give for `Cc1oc(-c2ccccc2F)nc1CS(=O)(=O)CC(=O)N1CCCCCC1` here?
**A.** inactive

**Q.** For `C=CCn1cn[nH]c1=S`, which Potency is on record?
**A.** inconclusive: 4.47 µM [activator, full curve, poor fit]

**Q.** With `COc1ccc(CNn2cnnc2)c(O)c1` as the compound, how does the Potency read?
**A.** inconclusive: 6.31 µM [inhibitor, single point]

**Q.** For `CC(OC(=O)c1cccc(S(=O)(=O)N2CCCC2)c1)C(=O)c1ccccc1` (centres undefined), which Potency is on record?
**A.** inconclusive: 35.5 µM [activator, single point]

**Q.** For `Cc1nccn1CCc1n[nH]c(=S)n1Cc1ccccc1`, which Potency is on record?
**A.** inconclusive: 17.8 µM [activator, single point]

**Q.** Which Potency does the source give for `COC1=C(C2C(OC)CCC3CCCCC32)C2=C(CCCC2)CC1` (centres undefined) here?
**A.** inactive

**Q.** For `O=C(NCc1ccccc1)C1(c2cccc(F)c2)CCCC1`, which Potency is on record?
**A.** inconclusive: 29.1 µM [inhibitor, single point]

**Q.** For `COc1ccc(C2CC(=O)C=C(NCc3ccccc3)C2)cc1` (centres undefined), which Potency is on record?
**A.** inconclusive: 3.98 µM [inhibitor, full curve, poor fit]

**Q.** With `CS(=O)(=O)NN1C(=O)c2ccccc2NC1c1cc2ccccc2nc1Cl` (centres undefined) as the compound, how does the Potency read?
**A.** inactive

**Q.** With `CC(C)c1nc2ccccc2c2nnc(SCC(=O)NCc3ccco3)n12` as the compound, how does the Potency read?
**A.** inconclusive: 0.58 µM [inhibitor, full curve, poor fit]
